Drawing on PMC11267363, “Supramolecular Nanofibers Ameliorate Bleomycin‐Induced Pulmonary Fibrosis by Restoring Autophagy” (Advanced Science, 2024), this text covers binding for three molecules.

Sequences of proteins named here, by UniProt entry; tags and fusion partners are left off. Residues count along the entry.
UniProt Q96RU7: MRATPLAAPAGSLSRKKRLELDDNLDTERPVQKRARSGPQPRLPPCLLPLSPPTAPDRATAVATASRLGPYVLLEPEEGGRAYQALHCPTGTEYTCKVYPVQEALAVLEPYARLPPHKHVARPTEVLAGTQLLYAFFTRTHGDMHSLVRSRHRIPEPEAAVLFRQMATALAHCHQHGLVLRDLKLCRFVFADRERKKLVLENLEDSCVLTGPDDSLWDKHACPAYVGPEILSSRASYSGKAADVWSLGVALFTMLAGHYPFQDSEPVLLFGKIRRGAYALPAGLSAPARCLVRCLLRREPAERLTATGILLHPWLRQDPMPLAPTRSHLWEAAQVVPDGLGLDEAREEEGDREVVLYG
UniProt P02769, residues 25-607: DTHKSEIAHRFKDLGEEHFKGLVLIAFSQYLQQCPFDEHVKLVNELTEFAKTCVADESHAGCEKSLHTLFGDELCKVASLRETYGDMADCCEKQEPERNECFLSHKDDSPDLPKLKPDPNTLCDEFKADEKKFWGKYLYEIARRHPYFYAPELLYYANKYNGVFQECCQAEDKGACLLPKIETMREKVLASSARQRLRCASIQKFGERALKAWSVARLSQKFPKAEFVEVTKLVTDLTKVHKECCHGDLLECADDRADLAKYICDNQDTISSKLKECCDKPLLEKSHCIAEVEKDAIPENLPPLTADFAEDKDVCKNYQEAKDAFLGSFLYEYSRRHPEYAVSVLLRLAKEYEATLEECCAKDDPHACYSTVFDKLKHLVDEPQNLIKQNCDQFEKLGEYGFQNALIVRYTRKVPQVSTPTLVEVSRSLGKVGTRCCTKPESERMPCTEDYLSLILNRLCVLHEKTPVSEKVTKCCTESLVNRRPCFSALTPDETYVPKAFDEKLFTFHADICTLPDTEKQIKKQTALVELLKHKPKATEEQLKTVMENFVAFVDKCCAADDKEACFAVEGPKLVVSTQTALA

Experiment [1] addresses TRB3, endogenous in MRC-5 human lung fibroblasts (human (endogenous in MRC-5)) (UniProt Q96RU7). Put plainly: co-IP; MRC-5 cells treated with TGF-β1 (10 ng/mL) and saline, A2 (50 µM) or Ac-GFFY-A2 (50 µM); endogenous proteins; which protein was precipitated is not told.
In experiment [2] the target is bovine serum albumin (bovine) (UniProt P02769). Put plainly: MST; Monolith NT.115; Ac-GFFY-A2 or A2 against human TRB3 protein or BSA (negative control); which partner was labelled is not told; both purified.
Experiment [3] concerns the target TRB3, endogenous in MRC-5 human lung fibroblasts (human (endogenous in MRC-5)) (UniProt Q96RU7). Briefly: co-IP; synthetic peptide (50 µM) added to TGF-β1 treated MRC-5 cells; loss of the TRB3/p62 co-precipitate as read-out of the peptide on endogenous TRB3; only the binder purified.
Experiment [4] has as its target T1, TRB3, endogenous in mouse lung tissue (mouse (endogenous in C57BL/6 lung tissue)) (UniProt Q8K4K2).
T1 sequence: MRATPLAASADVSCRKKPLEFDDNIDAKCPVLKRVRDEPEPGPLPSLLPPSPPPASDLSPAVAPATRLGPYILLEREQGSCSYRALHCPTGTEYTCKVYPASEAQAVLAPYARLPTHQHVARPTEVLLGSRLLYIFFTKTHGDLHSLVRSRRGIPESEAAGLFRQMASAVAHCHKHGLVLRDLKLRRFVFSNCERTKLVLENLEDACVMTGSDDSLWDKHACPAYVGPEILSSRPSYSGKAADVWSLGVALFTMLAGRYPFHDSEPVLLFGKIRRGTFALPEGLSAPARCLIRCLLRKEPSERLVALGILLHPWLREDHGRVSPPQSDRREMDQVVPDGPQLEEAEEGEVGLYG
Briefly: co-IP; peptide nanofibers given i.v. to bleomycin-injured mice; loss of the TRB3/p62 co-precipitate from lung tissue as read-out of the peptide on endogenous TRB3; only the binder purified.

Results are given in words; binding and its absence hold for the method and conditions named. For some assays here: In cells and extracts the contact can be indirect. Some entries that bind do so weakly or less than the wild type.

In the case of “p62, endogenous in MRC-5 human lung fibroblasts (from UniProt Q13501 1-440)”, in experiment [1], the binding result is “binds”.

B1: A2 peptide (TRB3-binding peptide fragment derived from p62) (peptide)
peptide: GGWLTRLLQTK
notes: also called non-self-assembling peptide A2; source: synthetic peptide (SPPS, purified by HPLC)
For the molecule B1, in experiment [2], the binding entry is on record as “no binding”.
Regarding GFFYGGWLTRLLQTK (acetyl on the N-terminus), the binding result is on record as “no binding” in experiment [2], “binds” in experiment [3] and “binds” in experiment [4].
